Measured values taken from the supplement of paper PMC9226226.
Where “and” joins values, the source holds several entries; their conditions need not be identical. Identical values can stand only once. This is one part of the list. Some well-known active drugs show little effect in this data set, so a weak value is uncertain.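 Human mesenchymal stem cells lacking the Werner syndrome gene, which age prematurely, were used. Automated live-cell imaging tracked growth across three biological repeats; the twenty drugs raising growth most relative to vehicle advanced, without a stated fixed cutoff.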 Numbered stars: 1 amine (or outer) side, 2 acyl side, 3 side chain; on linkers, the order of the positions; unused ones are H or OH. Bridge positions count the residues as written; N and C are the ends. Square brackets hold non-standard residues; d marks the D form. Peptide text beside a SMILES is read from it. * marks the point of attachment. hTyr(3S-OH,4S-OH,3'-OSO3H) = N[C@H](C(=O)O)[C@H](O)[C@@H](O)c1ccc(O)c(OS(=O)(=O)O)c1; Orn(4R-OH,5R-OH) = O=C([C@H](C[C@@H](O)[C@@H](O)N[*:3])N[*:1])[*:2]; Pro(3S-OH,4S-Me) = C[C@H]1CN[C@H](C(=O)O)[C@H]1O; X1 = CCCCCOc1ccc(-c2cc(-c3ccc(C(=O)*)cc3)no2)cc1; Gln(3R-OH) = NC(=O)C[C@@H](O)[C@H](N)C(=O)O; Hyp = O=C(O)[C@@H]1C[C@@H](O)CN1

System: Werner syndrome hMSCs (WRN-/-)
Experiment: relative cell density (fold change vs vehicle control); higher = more proliferation (geroprotective)
Conditions: concentration (umol/L): 1, 6 days

CC1CC(OC(=O)C(O)c2ccccc2)CC(C)(C)C1 (stereo not given)
relative cell density (vehicle: DMSO): 1.36

Cc1oncc1C(=O)Nc1ccc(C(F)(F)F)cc1
relative cell density (vehicle: DMSO): 1.04

COc1ccc(C(Cl)=C(c2ccc(OC)cc2)c2ccc(OC)cc2)cc1
relative cell density (vehicle: DMSO): 0.691

O=C(O)c1cccnc1Nc1cccc(C(F)(F)F)c1
relative cell density (vehicle: DMSO): 0.956

CN(C)/N=N/c1[nH]cnc1C(N)=O
relative cell density (vehicle: DMSO): 0.886

C[N+](C)(C)CCCCCC[N+](C)(C)C
relative cell density (vehicle: Water): 1.01

O=c1ccc2ccc(OCCCCN3CCN(c4cccc5sccc45)CC3)cc2[nH]1
relative cell density (vehicle: DMSO): 1.35

Cc1onc(-c2c(Cl)cccc2Cl)c1C(=O)N[C@@H]1C(=O)N2[C@@H]1SC(C)(C)[C@@H]2C(=O)O
relative cell density (vehicle: DMSO): 0.88

O=C(O)COCCN1CCN(C(c2ccccc2)c2ccc(Cl)cc2)CC1 (stereo not given)
relative cell density (vehicle: DMSO): 1.07

N[C@@H]1CONC1=O
relative cell density (vehicle: Water): 0.993

CCCSc1nc(N[C@@H]2C[C@H]2c2ccc(F)c(F)c2)c2nnn([C@@H]3C[C@H](OCCO)[C@@H](O)[C@H]3O)c2n1
relative cell density (vehicle: DMSO): 0.568

CC(=O)O[C@]1(C(C)=O)CC[C@H]2[C@@H]3C=C(Cl)C4=CC(=O)[C@@H]5C[C@@H]5[C@]4(C)[C@H]3CC[C@@]21C
relative cell density (vehicle: DMSO): 1.26

CC(C)c1cc(-c2n[nH]c(=O)n2-c2ccc3c(ccn3C)c2)c(O)cc1O
relative cell density (vehicle: DMSO): 0.0994

CC(=O)O[C@]1(C(C)=O)CC[C@H]2[C@@H]3CCC4=CC(=O)CCC4=C3[C@@H](c3ccc(N(C)C)cc3)C[C@@]21C
relative cell density (vehicle: DMSO): 1.12

CCCCCOc1ccc(-c2cc(-c3ccc(C(=O)N[C@H]4C[C@@H](O)[C@@H](O)NC(=O)[C@@H]5[C@@H](O)[C@@H](C)CN5C(=O)[C@H]([C@H](O)CC(N)=O)NC(=O)[C@H]([C@H](O)[C@@H](O)c5ccc(O)c(OS(=O)(=O)O)c5)NC(=O)[C@@H]5C[C@@H](O)CN5C(=O)[C@H]([C@@H](C)O)NC4=O)cc3)no2)cc1 (X1-[Orn(4R-OH,5R-OH)]T[Hyp][hTyr(3S-OH,4S-OH,3'-OSO3H)][Gln(3R-OH)][Pro(3S-OH,4S-Me)]; lactam 1-C)
relative cell density (vehicle: Water): 1.14

COc1cc2nc(N(C)CCCNC(=O)C3CCCO3)nc(N)c2cc1OC (stereo not given)
relative cell density (vehicle: DMSO): 0.864

CCCCc1nc2cc(/C=C/C(=O)NO)ccc2n1CCN(CC)CC
relative cell density (vehicle: DMSO): 0.625

N=C(N)Nc1ccc(C(=O)Oc2ccc3cc(C(=N)N)ccc3c2)cc1
relative cell density (vehicle: DMSO): 1.11

NC(=O)c1nc(F)cnc1O
relative cell density (vehicle: DMSO): 0.927

CC#CC(=O)N1CCC[C@H]1c1nc(-c2ccc(C(=O)Nc3ccccn3)cc2)c2c(N)nccn12
relative cell density (vehicle: DMSO): 0.877

N[C@@H](Cc1c[nH]c2ccc(O)cc12)C(=O)O
relative cell density (vehicle: DMSO): 1.11

CN1C[C@@H]2C[C@H]1CN2c1cc2c(cc1F)c(=O)c(C(=O)O)cn2C1CC1
relative cell density (vehicle: Water): 1.04

C[C@]12CC[C@H](O)CC1=CC[C@@H]1[C@@H]2CC[C@]2(C)C(n3cnc4ccccc43)=CC[C@@H]12
relative cell density (vehicle: DMSO): 0.844

CNC(=O)CN(CCN(CCN(CC(=O)[O-])CC(=O)NC)CC(=O)[O-])CC(=O)[O-].O.[Gd+3]
relative cell density (vehicle: Water): 1.05

CC1=C(/C=C/C(C)=C/C=C/C(C)=C/C(=O)O)C(C)(C)CCC1
relative cell density (vehicle: DMSO): 0.897

O=C(Nc1nc2cccc(-c3ccc(CN4CCS(=O)(=O)CC4)cc3)n2n1)C1CC1
relative cell density (vehicle: DMSO): 0.999

N=C(N)NS(=O)(=O)c1ccc(N)cc1
relative cell density (vehicle: DMSO): 1.38

CC(=O)Oc1ccccc1C(=O)O
relative cell density (vehicle: DMSO): 1.51

CNS(=O)(=O)CCc1ccc2[nH]cc(C3CCN(C)CC3)c2c1
relative cell density (vehicle: DMSO): 1.04

Cc1ncc(CO)c(CO)c1O
relative cell density (vehicle: DMSO): 1.17 and 1.06

OC(c1ccccc1)(c1ccccc1)C12CC[N+](CCOCc3ccccc3)(CC1)CC2
relative cell density (vehicle: DMSO): 0.913

CC1(C)[C@H](C(=O)O)N2C(=O)C[C@H]2S1(=O)=O
relative cell density (vehicle: DMSO): 1.16 and 1.06

N[C@@H](CCC(=O)N[C@@H](CS)C(=O)NCC(=O)O)C(=O)O
relative cell density (vehicle: Water): 1.33

CC1=C(C(=O)O)N2C(=O)[C@@H](NC(=O)[C@H](N)C3=CCC=CC3)[C@H]2SC1
relative cell density (vehicle: Water): 0.854

C#Cc1cccc(Nc2ncnc3cc4c(cc23)OCCOCCOCCO4)c1
relative cell density (vehicle: DMSO): 1.67

C=CC(=O)Nc1cc(Nc2nccc(-c3cn(C)c4ccccc34)n2)c(OC)cc1N(C)CCN(C)C
relative cell density (vehicle: DMSO): 0.86

CCCN(CCC)S(=O)(=O)c1ccc(C(=O)O)cc1
relative cell density (vehicle: DMSO): 1.38

CCN(CC)C(=O)c1cccc(C)c1
relative cell density (vehicle: DMSO): 1.11

CCN(CC)C(=O)c1cccnc1
relative cell density (vehicle: DMSO): 1.02

C[C@]12CC[C@@H]3c4ccc(O)cc4CC[C@H]3[C@@H]1CC[C@@H]2O
relative cell density (vehicle: DMSO): 0.963

CCCC(CCC)C(N)=O
relative cell density (vehicle: DMSO): 0.915

CN(C)CC/C=C1/c2ccccc2Sc2ccc(Cl)cc21
relative cell density (vehicle: DMSO): 1.35

O=C(O)CSc1nnc(Br)n1-c1ccc(C2CC2)c2ccccc12
relative cell density (vehicle: DMSO): 1.49

CC(=O)[C@H]1CC[C@H]2[C@@H]3CCC4=CC(=O)CC[C@]4(C)[C@H]3CC[C@]12C
relative cell density (vehicle: DMSO): 1.09

Cn1cc(CNCC2CCN(c3ncc(C(=O)NO)cn3)CC2)c2ccccc21
relative cell density (vehicle: DMSO): 0.133

CN(C)CCOC(c1ccccc1)c1ccccc1
relative cell density (vehicle: DMSO): 1.24

COc1cc(O)c(C(=O)c2ccccc2)cc1S(=O)(=O)O
relative cell density (vehicle: DMSO): 1.39

Nc1cccc2c1C(=O)N(C1CCC(=O)NC1=O)C2=O (stereo not given)
relative cell density (vehicle: DMSO): 1.04

N=C(N)NC(=O)Cc1c(Cl)cccc1Cl
relative cell density (vehicle: DMSO): 1.22

CCCCCCCCCC(=O)N[C@@H](Cc1c[nH]c2ccccc12)C(=O)N[C@@H](CC(N)=O)C(=O)N[C@@H](CC(=O)O)C(=O)N[C@@H]1C(=O)NCC(=O)N[C@@H](CCCN)C(=O)N[C@@H](CC(=O)O)C(=O)N[C@H](C)C(=O)N[C@@H](CC(=O)O)C(=O)NCC(=O)N[C@H](CO)C(=O)N[C@@H]([C@H](C)CC(=O)O)C(=O)N[C@@H](CC(=O)c2ccccc2N)C(=O)O[C@@H]1C
relative cell density (vehicle: DMSO): 0.927

CC1(C)CCC(C)(C)c2cc(NC(=O)c3ccc(C(=O)O)cc3)ccc21
relative cell density (vehicle: DMSO): 1.07

N[C@@H](Cc1cc(I)c(Oc2cc(I)c(O)c(I)c2)c(I)c1)C(=O)O
relative cell density (vehicle: DMSO): 1.19 and 1.13

COc1cc(C(=O)O)ccc1NC(=O)[C@@H]1N[C@@H](CC(C)(C)C)[C@](C#N)(c2ccc(Cl)cc2F)[C@H]1c1cccc(Cl)c1F
relative cell density (vehicle: DMSO): 1.14

Nc1ncnc2c1ncn2[C@@H]1O[C@H](CO)[C@@H](O)[C@H]1O
relative cell density (vehicle: DMSO): 1.15

Clc1ccc(CSC(Cn2ccnc2)c2ccc(Cl)cc2Cl)cc1 (stereo not given)
relative cell density (vehicle: DMSO): 0.905

CC(=O)O[C@@]12CO[C@@H]1C[C@H](O)[C@@]1(C)C(=O)[C@H](O)C3=C(C)[C@@H](OC(=O)[C@H](O)[C@@H](NC(=O)OC(C)(C)C)c4ccccc4)C[C@@](O)([C@@H](OC(=O)c4ccccc4)[C@H]21)C3(C)C
relative cell density (vehicle: DMSO): 0.493 and 0.381

Nc1ccn([C@@H]2O[C@H](CO)[C@@H](O)C2(F)F)c(=O)n1
relative cell density (vehicle: DMSO): 0.874 | relative cell density (vehicle: Water): 0.442

CO[C@H]1C[C@@H]2CC[C@@H](C)[C@@](O)(O2)C(=O)C(=O)N2CCCC[C@H]2C(=O)O[C@H]([C@H](C)C[C@@H]2CC[C@@H](OCCO)[C@H](OC)C2)CC(=O)[C@H](C)/C=C(\C)[C@@H](O)[C@@H](OC)C(=O)[C@H](C)C[C@H](C)/C=C/C=C/C=C/1C
relative cell density (vehicle: DMSO): 0.761

CN(C)CCN(Cc1ccccc1)c1ccccn1
relative cell density (vehicle: Water): 1.06

CC1CNc2c(cccc2S(=O)(=O)N[C@@H](CCCNC(=N)N)C(=O)N2CC[C@@H](C)C[C@@H]2C(=O)O)C1 (stereo not given in full)
relative cell density (vehicle: DMSO): 1.18 and 1.17

C=C1/C(=C\C=C2/CCC[C@]3(C)[C@@H]([C@H](C)CCCC(C)C)CC[C@@H]23)C[C@@H](O)C[C@@H]1O
relative cell density (vehicle: DMSO): 1.51

O=C(O)CCNC(=O)c1ccccc1
relative cell density (vehicle: DMSO): 0.71

O=C(N[C@H](CO)[C@H](O)c1ccc([N+](=O)[O-])cc1)C(Cl)Cl
relative cell density (vehicle: DMSO): 1.06

CCC[C@@H]1C[C@@H](C(=O)N[C@@H]([C@H]2O[C@H](SC)[C@H](O)[C@@H](O)[C@H]2O)[C@H](C)Cl)N(C)C1
relative cell density (vehicle: DMSO): 0.866 and 1.03

CC1=NN(c2ccccc2)C(=O)C1
relative cell density (vehicle: DMSO): 1.09

CCN(CC)CCNC(=O)c1cc(Cl)c(N)cc1OC
relative cell density (vehicle: DMSO): 1.17

CC(C)(CO)C(O)C(=O)NCCCO (stereo not given)
relative cell density (vehicle: DMSO): 1.15

CCOc1ccc2ccccc2c1C(=O)N[C@@H]1C(=O)N2[C@@H]1SC(C)(C)[C@@H]2C(=O)O
relative cell density (vehicle: DMSO): 1.12

COc1cc2c(Oc3ccc(NC(=O)C4(C(=O)Nc5ccc(F)cc5)CC4)cc3F)ccnc2cc1OCCCN1CCOCC1
relative cell density (vehicle: DMSO): 0.106

COc1ccccc1Oc1c(NS(=O)(=O)c2ccc(C(C)(C)C)cc2)nc(-c2ncccn2)nc1OCCO
relative cell density (vehicle: DMSO): 1

CN(C)CCC=C1c2ccccc2COc2ccccc21
relative cell density (vehicle: DMSO): 1.54

CC(C)[N+](C)(CCOC(=O)C1c2ccccc2Oc2ccccc21)C(C)C
relative cell density (vehicle: DMSO): 1.03

CN1CCC[C@@H]1Cc1c[nH]c2ccc(CCS(=O)(=O)c3ccccc3)cc12
relative cell density (vehicle: DMSO): 0.998

Cc1onc(-c2ccccc2Cl)c1C(=O)N[C@@H]1C(=O)N2[C@@H]1SC(C)(C)[C@@H]2C(=O)O
relative cell density (vehicle: DMSO): 0.843

C#Cc1cccc(Nc2ncnc3cc(OCCOC)c(OCCOC)cc23)c1
relative cell density (vehicle: DMSO): 0.763 | relative cell density (vehicle: Water): 0.16

NS(=O)(=O)c1cc2c(cc1Cl)NC(C(Cl)Cl)NS2(=O)=O (stereo not given)
relative cell density (vehicle: DMSO): 1

CN[C@@H]1[C@H](O)[C@H](NC)[C@H]2O[C@@]3(O)C(=O)C[C@@H](C)O[C@H]3O[C@@H]2[C@H]1O
relative cell density (vehicle: DMSO): 0.919

CCCCCCOC(=O)NC(=N)c1ccc(NCc2nc3cc(C(=O)N(CCC(=O)OCC)c4ccccn4)ccc3n2C)cc1
relative cell density (vehicle: DMSO): 1.29

NCCCC(=O)O
relative cell density (vehicle: Water): 0.899

COc1ccc(O)cc1
relative cell density (vehicle: DMSO): 0.976

Cc1c(-c2ccccc2)oc2c(C(=O)OCCN3CCCCC3)cccc2c1=O
relative cell density (vehicle: Water): 0.833

CC(=O)CCC=C(C)CCC=C(C)CCC=C(C)CCC=C(C)C
relative cell density (vehicle: DMSO): 1.22

CC12CCC(CC1=O)C2(C)C (stereo not given)
relative cell density (vehicle: DMSO): 1.16

CCN(CC)CCOC(=O)c1ccc(N)cc1Cl
relative cell density (vehicle: DMSO): 1

C[C@](N)(Cc1ccc(O)c(O)c1)C(=O)O
relative cell density (vehicle: Water): 1.16

Clc1ccc(C(Cn2ccnc2)OCc2ccsc2Cl)c(Cl)c1 (stereo not given)
relative cell density (vehicle: DMSO): 1.25

COc1cc2c(cc1OC)CC(=O)N(CCCN(C)C[C@H]1Cc3cc(OC)c(OC)cc31)CC2
relative cell density (vehicle: DMSO): 0.975

Cc1c(C(=O)NN2CCCCC2)nn(-c2ccc(Cl)cc2Cl)c1-c1ccc(Cl)cc1
relative cell density (vehicle: DMSO): 0.975
